Experimental data: PubChem BioAssay AID1224826 (NIAID, 2016)

Test: 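Regulators of Tlr4 signalling leading to Tnf-alpha expression in macrophages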 (primary screen)
Cells: RAW264.7 G9 macrophages from mouse bearing reporters for p65 (GFP) and the Tnf promoter (mCherry)
Reagents: siRNA pool against mouse genes, 100 nM
Time to read-out: 16 h of LPS stimulation, after 2 days of siRNA transfection
Challenge: bacterial lipopolysaccharide (Salmonella minnesota R595), 10 ng/ml
Read-out: 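Nuclear mCherry signal of the Tnf promoter reporter measured by imaging after background removal, scaled to each plate median and turned into robust z-scores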
Direction: Tnf reporter robust z-score: higher = stronger Tnf promoter reporter signal after LPS
Call rule: 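Called active when robust z-score is at most -1.3, matching the median of the Tlr4 knock-down control, or over 3; control wells and wells with under 50 cells never active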
Calls: active = Tnf reporter clearly lowered or raised; inactive = no clear change in Tnf reporter
The whole screen tested about 17,000 reagents; below is a part drawn at random. Of all reagents, about 1,110 (6.6%) got an active call. 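Active means lowered or raised reporter signal; replicate intensities are raw and not normalised per plate.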 Further read-outs or replicates are left out here.

After knock-down of Mzt2, the record shows Tnf reporter robust z-score 0.39; fewer than 50 cells in well enough cells in well; inactive. Slc16a6 scored Tnf reporter robust z-score 2.53; fewer than 50 cells in well enough cells in well; inactive. Edar showed Tnf reporter robust z-score -0.64; fewer than 50 cells in well enough cells in well; inactive. Tusc3 scored Tnf reporter robust z-score 0.3; fewer than 50 cells in well enough cells in well; inactive. Knock-down of Dio1 gave: Tnf reporter robust z-score 1.58; fewer than 50 cells in well enough cells in well; inactive. Il19 gave Tnf reporter robust z-score 0.19; fewer than 50 cells in well enough cells in well; inactive.

Silencing of Ndufs2 resulted in: Tnf reporter robust z-score -0.05; fewer than 50 cells in well enough cells in well; inactive. Knock-down of Rhbdf2 gave: Tnf reporter robust z-score 0.03; fewer than 50 cells in well enough cells in well; inactive. Knock-down of Pi4k2b came out at: Tnf reporter robust z-score -0.84; fewer than 50 cells in well enough cells in well; inactive. Knock-down of Ric3 came out at: Tnf reporter robust z-score 0.6; fewer than 50 cells in well enough cells in well; inactive. Depletion of Dcdc5 resulted in: Tnf reporter robust z-score 0.97; fewer than 50 cells in well enough cells in well; inactive. Against Or10ak14 the deposit lists Tnf reporter robust z-score -1.36; fewer than 50 cells in well enough cells in well; active.

C230071H18Rik (retired record) gave fewer than 50 cells in well fewer than 50 cells per well; well left out of calls; inactive. Against Cdc23, the entry reads Tnf reporter robust z-score 0.27; fewer than 50 cells in well enough cells in well; inactive. Silencing of Zfp810 resulted in: Tnf reporter robust z-score -0.8; fewer than 50 cells in well enough cells in well; inactive. Kctd19 showed Tnf reporter robust z-score -0.36; fewer than 50 cells in well enough cells in well; inactive. Ddx24 showed Tnf reporter robust z-score 1.78; fewer than 50 cells in well enough cells in well; inactive. With knock-down of Acsm1 the results were Tnf reporter robust z-score -0.11; fewer than 50 cells in well enough cells in well; inactive.

Spdl1 gave fewer than 50 cells in well fewer than 50 cells per well; well left out of calls; inactive. Depletion of Myot came out at: Tnf reporter robust z-score 0.3; fewer than 50 cells in well enough cells in well; inactive. After knock-down of Cntnap2, the screen gave Tnf reporter robust z-score -0.43; fewer than 50 cells in well enough cells in well; inactive.

Already shown: an excerpt of the list.
Mzt2: Tnf reporter robust z-score = 0.39; fewer than 50 cells in well = enough cells in well; activity call = inactive
Slc16a6: Tnf reporter robust z-score = 2.53; fewer than 50 cells in well = enough cells in well; activity call = inactive
